Laboratory results: patent publication US12109252B2, “Systems, methods and products for minimizing tissue reactions and tissue injury at an infusion site” (Cell and Molecular Tissue Engineering, LLC, priority 2016, dated 2024)
“Also recorded” adds a separate entry of the source.

System: human peripheral blood leukocytes
Experiment: Uptake of FITC-insulin by human leukocytes (fluorescent microscopy)
Type: cell-based
Conditions: PMNs, monocytes; not lymphocytes

With “FITC-insulin: fluorescent insulin (FITC-insulin; Sigma, St. Louis, MO)” the “uptake by human leukocytes” value was “take up and degrade; also recorded: taken up”.
